Consider 32 targets from the supplement of paper PMC10849652.

Protein sequences, listed by entry. Tags and fused reporters are not part of them. Lines headed by an entry give the natural chain unless they say otherwise; changes in a name come on top.
UniProt Q5T447: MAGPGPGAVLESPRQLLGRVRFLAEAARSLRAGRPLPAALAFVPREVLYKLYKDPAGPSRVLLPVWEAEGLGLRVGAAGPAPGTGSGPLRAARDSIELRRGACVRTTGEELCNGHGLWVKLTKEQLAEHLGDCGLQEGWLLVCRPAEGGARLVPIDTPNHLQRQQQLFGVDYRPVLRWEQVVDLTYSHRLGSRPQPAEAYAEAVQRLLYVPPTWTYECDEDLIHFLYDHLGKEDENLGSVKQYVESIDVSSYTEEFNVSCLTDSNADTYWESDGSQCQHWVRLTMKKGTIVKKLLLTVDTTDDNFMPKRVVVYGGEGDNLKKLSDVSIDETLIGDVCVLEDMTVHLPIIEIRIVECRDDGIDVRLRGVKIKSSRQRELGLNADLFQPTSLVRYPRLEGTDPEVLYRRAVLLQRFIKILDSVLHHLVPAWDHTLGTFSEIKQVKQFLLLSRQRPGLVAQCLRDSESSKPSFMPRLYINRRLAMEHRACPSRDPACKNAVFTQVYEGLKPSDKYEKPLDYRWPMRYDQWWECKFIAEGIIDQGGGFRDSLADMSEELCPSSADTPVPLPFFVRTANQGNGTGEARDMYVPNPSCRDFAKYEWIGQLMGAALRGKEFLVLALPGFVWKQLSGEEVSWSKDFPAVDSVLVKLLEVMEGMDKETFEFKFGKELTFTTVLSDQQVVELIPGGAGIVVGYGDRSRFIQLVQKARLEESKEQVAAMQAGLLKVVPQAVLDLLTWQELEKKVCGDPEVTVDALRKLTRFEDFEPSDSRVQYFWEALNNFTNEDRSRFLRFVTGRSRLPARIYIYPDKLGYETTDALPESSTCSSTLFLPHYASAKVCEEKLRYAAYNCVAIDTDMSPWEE
UniProt Q53GQ0: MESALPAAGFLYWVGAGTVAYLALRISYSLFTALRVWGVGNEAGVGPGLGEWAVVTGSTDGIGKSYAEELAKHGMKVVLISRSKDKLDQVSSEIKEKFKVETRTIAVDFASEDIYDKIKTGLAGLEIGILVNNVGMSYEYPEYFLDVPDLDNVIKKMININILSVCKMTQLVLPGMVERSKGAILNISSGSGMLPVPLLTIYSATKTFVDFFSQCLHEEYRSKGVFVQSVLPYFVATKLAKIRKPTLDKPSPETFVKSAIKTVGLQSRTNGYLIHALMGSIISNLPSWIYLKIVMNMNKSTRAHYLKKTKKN
UniProt Q86YM7: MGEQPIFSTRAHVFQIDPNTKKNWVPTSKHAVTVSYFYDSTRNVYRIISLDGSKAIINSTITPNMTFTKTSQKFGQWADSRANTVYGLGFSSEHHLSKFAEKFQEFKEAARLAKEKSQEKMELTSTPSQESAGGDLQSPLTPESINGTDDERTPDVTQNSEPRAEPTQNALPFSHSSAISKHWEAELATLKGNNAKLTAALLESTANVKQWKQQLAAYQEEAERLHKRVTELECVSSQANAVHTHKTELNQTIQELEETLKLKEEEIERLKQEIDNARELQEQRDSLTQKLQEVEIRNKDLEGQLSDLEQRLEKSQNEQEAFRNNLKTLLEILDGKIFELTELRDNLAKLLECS
UniProt P17482: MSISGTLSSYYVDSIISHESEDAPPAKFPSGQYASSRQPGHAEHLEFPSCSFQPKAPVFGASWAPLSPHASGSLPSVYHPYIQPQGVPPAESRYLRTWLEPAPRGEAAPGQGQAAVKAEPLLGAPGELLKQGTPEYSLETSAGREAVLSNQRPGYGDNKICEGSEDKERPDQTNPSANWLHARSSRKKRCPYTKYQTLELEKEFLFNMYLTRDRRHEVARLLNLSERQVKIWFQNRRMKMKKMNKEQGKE
UniProt O75506: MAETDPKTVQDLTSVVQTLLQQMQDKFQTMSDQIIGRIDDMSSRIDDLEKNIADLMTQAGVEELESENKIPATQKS
UniProt Q9NWY4: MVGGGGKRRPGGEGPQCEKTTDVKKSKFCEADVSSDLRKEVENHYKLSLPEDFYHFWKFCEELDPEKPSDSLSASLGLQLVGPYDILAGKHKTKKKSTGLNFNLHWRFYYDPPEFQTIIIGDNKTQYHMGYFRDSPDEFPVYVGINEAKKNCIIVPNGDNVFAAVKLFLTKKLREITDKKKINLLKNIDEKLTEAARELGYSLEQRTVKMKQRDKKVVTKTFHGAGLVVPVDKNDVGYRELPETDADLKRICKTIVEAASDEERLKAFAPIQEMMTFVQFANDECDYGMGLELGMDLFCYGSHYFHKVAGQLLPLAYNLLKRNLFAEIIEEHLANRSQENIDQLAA
UniProt P06865: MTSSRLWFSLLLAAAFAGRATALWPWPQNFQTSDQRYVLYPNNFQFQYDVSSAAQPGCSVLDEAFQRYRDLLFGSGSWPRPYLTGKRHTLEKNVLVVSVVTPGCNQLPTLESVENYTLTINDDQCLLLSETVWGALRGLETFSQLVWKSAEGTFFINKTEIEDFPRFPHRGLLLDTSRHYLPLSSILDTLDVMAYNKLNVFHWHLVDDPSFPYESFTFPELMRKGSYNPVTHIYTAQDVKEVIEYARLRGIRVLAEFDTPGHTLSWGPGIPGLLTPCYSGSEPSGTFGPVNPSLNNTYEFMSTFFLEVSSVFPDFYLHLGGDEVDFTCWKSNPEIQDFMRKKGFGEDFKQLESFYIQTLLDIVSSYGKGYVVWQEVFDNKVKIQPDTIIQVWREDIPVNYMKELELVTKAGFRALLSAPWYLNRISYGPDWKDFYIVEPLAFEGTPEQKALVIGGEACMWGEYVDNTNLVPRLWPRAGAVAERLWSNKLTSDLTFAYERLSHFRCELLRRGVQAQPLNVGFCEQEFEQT
UniProt Q9UGU5: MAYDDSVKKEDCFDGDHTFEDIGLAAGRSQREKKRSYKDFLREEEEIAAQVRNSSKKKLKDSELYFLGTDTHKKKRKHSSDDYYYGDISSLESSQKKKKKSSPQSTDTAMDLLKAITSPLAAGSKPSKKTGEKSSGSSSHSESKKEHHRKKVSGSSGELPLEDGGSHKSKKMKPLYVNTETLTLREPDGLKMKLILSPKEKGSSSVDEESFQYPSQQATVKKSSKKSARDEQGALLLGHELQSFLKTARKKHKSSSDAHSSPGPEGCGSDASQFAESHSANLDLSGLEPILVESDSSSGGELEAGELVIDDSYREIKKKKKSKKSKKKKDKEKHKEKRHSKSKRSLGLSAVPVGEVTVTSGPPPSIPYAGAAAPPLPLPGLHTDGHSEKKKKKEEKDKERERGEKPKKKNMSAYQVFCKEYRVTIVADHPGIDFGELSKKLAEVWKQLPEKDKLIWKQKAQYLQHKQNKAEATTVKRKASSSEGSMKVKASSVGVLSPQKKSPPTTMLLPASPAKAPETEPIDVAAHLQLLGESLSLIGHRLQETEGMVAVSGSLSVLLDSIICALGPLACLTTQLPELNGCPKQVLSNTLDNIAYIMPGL
UniProt Q03933: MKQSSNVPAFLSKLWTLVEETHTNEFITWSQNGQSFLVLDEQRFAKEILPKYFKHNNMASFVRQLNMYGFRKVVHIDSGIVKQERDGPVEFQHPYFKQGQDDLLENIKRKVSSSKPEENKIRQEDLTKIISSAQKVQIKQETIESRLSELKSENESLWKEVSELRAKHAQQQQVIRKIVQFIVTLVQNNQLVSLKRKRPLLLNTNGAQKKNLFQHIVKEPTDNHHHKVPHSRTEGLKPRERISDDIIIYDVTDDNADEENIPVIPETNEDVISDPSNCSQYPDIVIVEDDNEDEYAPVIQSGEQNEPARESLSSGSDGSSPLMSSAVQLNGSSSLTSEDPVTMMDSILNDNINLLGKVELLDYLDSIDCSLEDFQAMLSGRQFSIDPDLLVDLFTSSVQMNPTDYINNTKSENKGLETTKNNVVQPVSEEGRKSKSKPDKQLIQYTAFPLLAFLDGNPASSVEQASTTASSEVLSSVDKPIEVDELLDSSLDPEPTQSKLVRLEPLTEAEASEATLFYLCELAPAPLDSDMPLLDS
UniProt Q9NRV9: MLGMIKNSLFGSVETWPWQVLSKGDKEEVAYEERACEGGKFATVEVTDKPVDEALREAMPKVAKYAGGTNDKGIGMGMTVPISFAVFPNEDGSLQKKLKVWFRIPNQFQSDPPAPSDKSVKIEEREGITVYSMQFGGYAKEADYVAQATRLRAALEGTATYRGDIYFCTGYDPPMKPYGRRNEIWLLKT
UniProt Q6DN03, whole entry, looked up: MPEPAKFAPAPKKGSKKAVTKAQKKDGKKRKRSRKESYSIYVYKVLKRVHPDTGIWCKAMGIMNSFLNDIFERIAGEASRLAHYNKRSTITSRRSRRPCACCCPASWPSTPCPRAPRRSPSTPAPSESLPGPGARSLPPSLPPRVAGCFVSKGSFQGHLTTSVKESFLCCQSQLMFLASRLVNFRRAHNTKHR
UniProt P49773: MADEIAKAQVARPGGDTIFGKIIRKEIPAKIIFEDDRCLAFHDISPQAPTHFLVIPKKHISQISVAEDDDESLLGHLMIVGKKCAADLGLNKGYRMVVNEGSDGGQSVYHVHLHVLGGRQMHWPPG
UniProt P26583: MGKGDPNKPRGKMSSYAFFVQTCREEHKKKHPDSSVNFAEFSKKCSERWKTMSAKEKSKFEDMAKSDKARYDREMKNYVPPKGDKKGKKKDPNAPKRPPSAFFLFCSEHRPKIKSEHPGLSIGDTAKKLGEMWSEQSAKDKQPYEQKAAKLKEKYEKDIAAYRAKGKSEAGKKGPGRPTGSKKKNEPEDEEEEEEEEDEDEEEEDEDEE
UniProt P09651: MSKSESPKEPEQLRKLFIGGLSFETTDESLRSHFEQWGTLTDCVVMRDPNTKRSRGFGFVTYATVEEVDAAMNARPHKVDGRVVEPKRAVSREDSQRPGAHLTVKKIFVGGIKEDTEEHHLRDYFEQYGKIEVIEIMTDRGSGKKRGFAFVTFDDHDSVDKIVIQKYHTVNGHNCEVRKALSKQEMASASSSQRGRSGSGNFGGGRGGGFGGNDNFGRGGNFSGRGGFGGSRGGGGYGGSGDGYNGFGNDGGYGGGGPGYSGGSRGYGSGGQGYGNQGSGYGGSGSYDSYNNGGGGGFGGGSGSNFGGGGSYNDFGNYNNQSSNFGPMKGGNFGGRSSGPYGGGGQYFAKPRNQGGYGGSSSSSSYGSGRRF
UniProt Q0VDF9: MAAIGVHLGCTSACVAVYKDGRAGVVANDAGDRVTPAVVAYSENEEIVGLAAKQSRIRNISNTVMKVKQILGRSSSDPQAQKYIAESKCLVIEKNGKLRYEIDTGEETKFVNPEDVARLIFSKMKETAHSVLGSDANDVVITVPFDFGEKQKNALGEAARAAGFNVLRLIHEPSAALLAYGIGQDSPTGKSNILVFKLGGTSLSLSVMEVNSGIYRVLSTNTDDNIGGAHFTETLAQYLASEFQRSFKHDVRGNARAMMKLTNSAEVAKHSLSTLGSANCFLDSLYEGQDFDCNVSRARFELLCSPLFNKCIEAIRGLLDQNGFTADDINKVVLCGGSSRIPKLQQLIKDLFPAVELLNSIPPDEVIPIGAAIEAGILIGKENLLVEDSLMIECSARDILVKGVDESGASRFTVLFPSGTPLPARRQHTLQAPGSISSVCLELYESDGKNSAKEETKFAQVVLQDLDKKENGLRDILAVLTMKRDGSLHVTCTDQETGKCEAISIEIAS
UniProt Q9UPZ3: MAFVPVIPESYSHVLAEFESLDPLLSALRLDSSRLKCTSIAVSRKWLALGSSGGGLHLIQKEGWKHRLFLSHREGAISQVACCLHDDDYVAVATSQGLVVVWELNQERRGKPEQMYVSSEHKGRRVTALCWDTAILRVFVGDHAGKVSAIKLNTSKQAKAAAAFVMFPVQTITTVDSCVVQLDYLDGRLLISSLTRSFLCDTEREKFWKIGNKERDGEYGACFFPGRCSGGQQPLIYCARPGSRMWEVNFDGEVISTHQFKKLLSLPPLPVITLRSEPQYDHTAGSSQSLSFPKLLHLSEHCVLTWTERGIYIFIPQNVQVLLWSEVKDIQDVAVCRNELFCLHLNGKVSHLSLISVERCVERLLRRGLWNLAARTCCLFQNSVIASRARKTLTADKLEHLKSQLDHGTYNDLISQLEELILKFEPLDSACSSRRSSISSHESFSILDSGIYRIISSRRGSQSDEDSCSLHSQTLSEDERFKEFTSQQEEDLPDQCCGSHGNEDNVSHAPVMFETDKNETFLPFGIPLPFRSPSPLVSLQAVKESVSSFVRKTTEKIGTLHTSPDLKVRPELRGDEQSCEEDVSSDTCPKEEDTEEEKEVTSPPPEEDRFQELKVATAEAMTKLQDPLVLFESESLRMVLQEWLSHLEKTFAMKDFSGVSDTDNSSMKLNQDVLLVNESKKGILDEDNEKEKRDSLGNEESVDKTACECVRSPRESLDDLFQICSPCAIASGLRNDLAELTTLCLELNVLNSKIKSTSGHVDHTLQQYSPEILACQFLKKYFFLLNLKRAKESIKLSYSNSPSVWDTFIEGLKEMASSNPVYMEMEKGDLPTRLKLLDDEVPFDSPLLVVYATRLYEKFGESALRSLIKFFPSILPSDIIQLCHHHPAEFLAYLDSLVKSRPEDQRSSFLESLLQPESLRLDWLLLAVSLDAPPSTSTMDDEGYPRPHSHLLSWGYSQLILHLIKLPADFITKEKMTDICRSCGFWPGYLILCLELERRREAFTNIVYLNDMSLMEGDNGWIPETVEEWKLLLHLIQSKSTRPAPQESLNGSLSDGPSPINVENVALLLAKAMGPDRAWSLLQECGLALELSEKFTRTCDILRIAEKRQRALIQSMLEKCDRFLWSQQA

The other results are listed elsewhere or left out.

Compound in one assay: CC[C@@H]1C(=O)N(C)c2cnc(Nc3ccc(C(=O)NC4CCN(C)CC4)cc3OC)nc2N1C1CCCC1
Kind of assay: log2 fold change, soluble protein after heating vs DMSO (PISA); higher = thermal stabilisation; K562 lysate, 10 uM; active = over 0.2 and 3.5 SD of the protein, either way, in both replicates (recomputed). In short, it runs like this:
(§1)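 Dounce homogenisation of K562 pellets in PBS pH 7.4 with 1 mM MgCl2 produced a crude extract, used at 1 mg/mL protein. Exposure to 10 μM compound lasted 30 min, and aliquots were then heated for 3 min across 48°C-58°C, pooled and brought to 0.5% NP-40 at 4°C. The supernatant after 21,000xg for 90 min was quantified by TMTpro 16plex LC-MS/MS with channel sums equalised. Duplicate values are given as log-two fold change in thermal stability relative to solvent controls.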
Take HECTD3 (UniProt Q5T447): the log2 fold change was inactive: -0.022.

HNRNPM (UniProt M0QZM1): the log2 fold change was inactive: 0.171.

Consider HM13 isoform 2 (UniProt Q8TCT9), for which the log2 fold change is inactive: 0.041.

As for HSD17B12 (UniProt Q53GQ0), the log2 fold change is inactive: 0.003.

On to HLCS (UniProt P50747), for which the log2 fold change is inactive: -0.034.

Consider HEATR6 (UniProt Q6AI08), for which the log2 fold change was inactive: -0.076.

Consider HOMER1 (UniProt Q86YM7), for which the log2 fold change was inactive: 0.025.

Regarding HOXB9 (UniProt P17482), the log2 fold change was inactive: 0.064.

As to HSBP1 (UniProt O75506), the log2 fold change was inactive: -0.084.

Turning to HPF1 (UniProt Q9NWY4), the log2 fold change was inactive: -0.075.

In the case of HNRNPH1 (UniProt P31943), the log2 fold change was inactive: 0.078.

As for HEXA (UniProt P06865), the log2 fold change is inactive: -0.004.

As to HMGXB4 (UniProt Q9UGU5), the log2 fold change was inactive: 0.104.

As for HNRNPA2B1 (UniProt P22626), the log2 fold change was inactive: 0.006.

Consider HNRNPDL (UniProt O14979), for which the log2 fold change is inactive: 0.008.

As for HSF2 (UniProt Q03933), the log2 fold change is inactive: -0.037.

With HEBP1 (UniProt Q9NRV9), the log2 fold change is inactive: 0.078.

Turning to HIST2H2BF isoform 2 (UniProt Q5QNW6), the log2 fold change is inactive: -0.032.

On to HK1 isoform 2 (UniProt P19367), for which the log2 fold change is inactive: -0.023.

Regarding HMOX2 (UniProt P30519), the log2 fold change was inactive: -0.015.

Take HERPUD1 (UniProt Q15011): the log2 fold change was inactive: 0.14.

As to HEMGN (UniProt Q9BXL5), the log2 fold change is inactive: 0.021.

With HIST2H2BC (UniProt Q6DN03), the log2 fold change was inactive: -0.05.

On to HNRNPA0 (UniProt Q13151), for which the log2 fold change was inactive: 0.025.

Regarding HINT1 (UniProt P49773), the log2 fold change is inactive: 0.021.

Turning to HPS4 isoform 4 (UniProt Q9NQG7), the log2 fold change was inactive: 0.071.

Turning to HMGB2 (UniProt P26583), the log2 fold change was inactive: 0.037.

Take HNRNPA1 (UniProt P09651): the log2 fold change is inactive: 0.01.

For the target HIRA (UniProt P54198), the log2 fold change is inactive: 0.042.

Take HSPA14 (UniProt Q0VDF9): the log2 fold change was inactive: -0.026.

Compound in the next assay: CC[C@@H]1C(=O)N(C)c2cnc(Nc3ccc(C(=O)N[C@H]4CC[C@H](N5CCN(CC6CC6)CC5)CC4)cc3OC)nc2N1C(C)C [volasertib]
The assay is described as above. In short, it runs like this: as §1
In the case of HECTD3 (UniProt Q5T447), the log2 fold change was inactive: -0.024.

In the case of HM13 isoform 2 (UniProt Q8TCT9), the log2 fold change is inactive: 0.083.

With HSD17B12 (UniProt Q53GQ0), the log2 fold change is inactive: -0.096.

Regarding HLCS (UniProt P50747), the log2 fold change was inactive: -0.054.

HEATR6 (UniProt Q6AI08): the log2 fold change was inactive: -0.019.

With HOMER1 (UniProt Q86YM7), the log2 fold change was inactive: -0.003.

As for HOXB9 (UniProt P17482), the log2 fold change is inactive: -0.027.

As to HJURP (UniProt Q8NCD3), the log2 fold change is inactive: -0.06.

Turning to HPF1 (UniProt Q9NWY4), the log2 fold change is inactive: -0.103.

Turning to HNRNPH1 (UniProt P31943), the log2 fold change was inactive: -0.085.

On to HPS5 (UniProt Q9UPZ3), for which the log2 fold change was inactive: -0.008.

On to HEXA (UniProt P06865), for which the log2 fold change was inactive: 0.003.

Turning to HNRNPA2B1 (UniProt P22626), the log2 fold change was inactive: -0.003.

Regarding HNRNPDL (UniProt O14979), the log2 fold change was inactive: -0.002.

With HEBP1 (UniProt Q9NRV9), the log2 fold change was inactive: 0.064.

In the case of HIST2H2BF isoform 2 (UniProt Q5QNW6), the log2 fold change is inactive: 0.013.

Consider HK1 isoform 2 (UniProt P19367), for which the log2 fold change is inactive: -0.004.

Consider HMOX2 (UniProt P30519), for which the log2 fold change is inactive: 0.005.

In the case of HEMGN (UniProt Q9BXL5), the log2 fold change is inactive: 0.011.

On to HIST2H2BC (UniProt Q6DN03), for which the log2 fold change was inactive: 0.013.

Turning to HNRNPA0 (UniProt Q13151), the log2 fold change is inactive: -0.04.

Consider HINT1 (UniProt P49773), for which the log2 fold change is inactive: 0.036.

Regarding HPS4 isoform 4 (UniProt Q9NQG7), the log2 fold change was inactive: -0.006.

As for HMGB2 (UniProt P26583), the log2 fold change was inactive: 0.014.

With HNRNPA1 (UniProt P09651), the log2 fold change is inactive: -0.006.

For HIRA (UniProt P54198), the log2 fold change was inactive: 0.008.

Turning to HSPA14 (UniProt Q0VDF9), the log2 fold change is inactive: -0.043.
